At least one structure is not confirmed: it was looked up by name or label, or the drawing left a doubt.
System: rat blast model of TBI
Assay: Rat blast model of TBI, light dark box
Format: in vivo
Conditions: CBD 5 mg/kg IP, psilocybin 1.5 mg/kg PO from one hour after injury, 7 total doses; vs vehicle; FIG. 2
Description: This increased time spent in light was not seen with either CBD or psilocybin when dosed separately.

CN(C)CCc1c[nH]c2cccc(OP(=O)(O)O)c12 [psilocybin, [3-(2-dimethylaminoethyl)-1H-indol-4-yl] dihydrogen phosphate]
stress, time spent in light in the light dark box: not seen

Source: patent publication US12397007B2, “Methods of treatment with combinations of cannabidiol and psilocybin” (ECP Pharma, priority 2021, dated 2025)
